From patent US7462472B2 (priority 2001, dated 2008)
Not every detail of the peptide structures is certain; ends, links or a residue may be inferred.

Molecular target: CaM (Homo sapiens, UniProt P0DP23, T111C/T35C)
Assay type: binding

## CC[C@H](C)[C@H](NC(=O)CNC(=O)[C@H](Cc1ccc(O)cc1)NC(=O)[C@H](CCCCN)NC(=O)[C@@H](NC(=O)[C@H](CC(C)C)NC(=O)[C@H](CC(C)C)NC(=O)[C@H](CC(N)=O)NC(=O)[C@@H](NC(=O)[C@@H](NC(=O)CNC(=O)[C@H](CCCCN)NC(=O)[C@H](CCC(N)=O)NC(=O)[C@H](CCCCN)NC(=O)[C@H](CCC(=O)O)NC(=O)[C@H](CC(C)C)NC(=O)[C@H](CO)NC(=O)[C@@H](N)CC(N)=O)C(C)C)[C@@H](C)O)[C@@H](C)CC)C(=O)N[C@@H](CCC(=O)O)C(=O)O [helix H peptide]
  energy transfer / CaM conformation: increased energy transfer
  weaker affinity than that of intact enzyme: ~1000 times
